Measurements reported in PMC10932240.
No constants are given. Whether binding was seen depends on the method and setting. In cells and extracts the contact can be indirect. Binding calls can cover weak binding; strength is not graded here. Where a sequence is shown, tags or fusion partners need not be part of it.

Target: T1, Flag-VPS18 (pig (cloned from PAMs)) (UniProt F1SSU6)
T1 sequence: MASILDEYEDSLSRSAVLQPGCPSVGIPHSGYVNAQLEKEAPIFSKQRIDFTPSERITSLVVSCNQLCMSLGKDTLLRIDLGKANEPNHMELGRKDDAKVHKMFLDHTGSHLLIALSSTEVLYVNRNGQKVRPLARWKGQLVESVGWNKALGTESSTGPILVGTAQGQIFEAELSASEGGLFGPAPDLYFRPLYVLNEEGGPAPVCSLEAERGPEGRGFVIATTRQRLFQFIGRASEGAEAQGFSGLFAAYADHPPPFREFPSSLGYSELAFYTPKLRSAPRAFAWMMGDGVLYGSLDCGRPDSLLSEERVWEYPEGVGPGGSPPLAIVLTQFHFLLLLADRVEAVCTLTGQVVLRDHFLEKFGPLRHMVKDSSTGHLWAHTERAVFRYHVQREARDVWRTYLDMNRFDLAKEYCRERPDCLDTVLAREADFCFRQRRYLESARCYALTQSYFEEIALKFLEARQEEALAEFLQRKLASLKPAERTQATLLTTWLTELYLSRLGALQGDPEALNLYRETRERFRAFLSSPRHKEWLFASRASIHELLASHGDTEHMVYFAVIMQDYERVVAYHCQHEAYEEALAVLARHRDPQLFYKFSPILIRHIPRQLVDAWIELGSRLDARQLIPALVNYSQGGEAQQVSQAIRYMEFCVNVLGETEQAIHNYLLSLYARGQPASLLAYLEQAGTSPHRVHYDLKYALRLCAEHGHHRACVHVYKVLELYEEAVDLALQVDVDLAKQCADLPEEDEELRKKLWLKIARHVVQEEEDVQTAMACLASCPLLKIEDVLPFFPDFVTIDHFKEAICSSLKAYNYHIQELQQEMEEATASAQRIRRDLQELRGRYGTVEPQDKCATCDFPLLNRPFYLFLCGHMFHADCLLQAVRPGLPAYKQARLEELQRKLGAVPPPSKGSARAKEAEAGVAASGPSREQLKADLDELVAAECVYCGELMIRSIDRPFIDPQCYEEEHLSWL
Assay: co-IP; HEK293T co-transfected with Flag-host protein and Myc-GP5 for 24 h, NP-40 lysate; anti-Flag M2 affinity gel 4 h at 4 °C, five washes; western blot

Q: How did the binding turn out when Myc-GP5 (PRRSV Hn07-1 (Type 2 PRRSV)) was run?
A: Its binding is “binds”.
